# PubChem BioAssay AID1259308 – NCATS – 2017
# Screen: 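Knock-downs that increase output of a recombinant reporter protein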 (primary screen)
# Cells: human HEK293 embryonic kidney cells stably expressing firefly luciferase (HEK-CMV-Luc2-Hygro)
# Reagents: single siRNA against human genes, 0.8 pmol siRNA per well
# Time to read-out: 72 h
# Read-out: 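Luciferase light (ONE-Glo) measured on one replicate plate set and viability (CellTiter-Glo) on the other, scaled to a negative control siRNA, with robust z-scores and luciferase per cell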
# Scale: total luciferase, z-score: higher = more reporter protein produced
# Call rule: 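Active when the median/MAD z-score for overall luciferase is greater than 3; a gene was taken forward for validation with new siRNAs if at least two of its three siRNAs passed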
# Calls: active = raised luciferase; inactive = no rise
# The deposit covers about 59,000 reagents; shown is a random part of them. Over the whole deposit, about 1,510 (2.6%) are marked active. 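Calls use total luciferase alone and ignore viability, so some active siRNAs may act by altering cell number.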 A number with no mark means an inactive call. The numbers tell different reagents against one gene apart. Further read-outs or replicates are left out here. Reagent sequences are not shown.
"total luciferase, z-score",target gene,reagent no.
-0.317,ADSS1 (adenylosuccinate synthase 1),1
3.02 (active),ADSS1 (adenylosuccinate synthase 1),2
0.465,ADSS1 (adenylosuccinate synthase 1),3
-0.0493,MIOX (myo-inositol oxygenase),1
0.706,MIOX (myo-inositol oxygenase),2
-0.465,MIOX (myo-inositol oxygenase),3
-0.124,DEK (DEK proto-oncogene),1
-0.824,DEK (DEK proto-oncogene),2
0.208,DEK (DEK proto-oncogene),3
0.0655,ATOH7 (atonal bHLH transcription factor 7),1
0.621,ATOH7 (atonal bHLH transcription factor 7),2
-0.217,ATOH7 (atonal bHLH transcription factor 7),3
-0.0741,LOC100288914 (mannosidase beta like pseudogene),1
-0.0897,LOC100288914 (mannosidase beta like pseudogene),2
-1.8,LOC100288914 (mannosidase beta like pseudogene),3
0.868,PIDD1 (p53-induced death domain protein 1),1
-0.887,PIDD1 (p53-induced death domain protein 1),2
0.135,PIDD1 (p53-induced death domain protein 1),3
-0.318,UBA5 (ubiquitin like modifier activating enzyme 5),1
0.447,UBA5 (ubiquitin like modifier activating enzyme 5),2
0.214,UBA5 (ubiquitin like modifier activating enzyme 5),3
-0.505,GCSHP9 (GCSH pseudogene 9),1
-1.59,GCSHP9 (GCSH pseudogene 9),2
-0.726,GCSHP9 (GCSH pseudogene 9),3
-0.0897,SLC66A1LP,1
0.483,SLC66A1LP,2
0.842,SLC66A1LP,3
-1.18,PANX3 (pannexin 3),1
0.965,PANX3 (pannexin 3),2
0.943,PANX3 (pannexin 3),3
0.834,RBBP8NL (RBBP8 N-terminal like),1
0.829,RBBP8NL (RBBP8 N-terminal like),2
-0.481,RBBP8NL (RBBP8 N-terminal like),3
0.327,AVPR2 (arginine vasopressin receptor 2),1
-1.21,AVPR2 (arginine vasopressin receptor 2),2
-1.22,AVPR2 (arginine vasopressin receptor 2),3
0.461,TMEM91 (transmembrane protein 91),1
-0.0809,TMEM91 (transmembrane protein 91),2
1.12,TMEM91 (transmembrane protein 91),3
-0.145,CNOT2 (CCR4-NOT transcription complex subunit 2),1
0.24,CNOT2 (CCR4-NOT transcription complex subunit 2),2
-0.75,CNOT2 (CCR4-NOT transcription complex subunit 2),3
0.453,PHYH (phytanoyl-CoA 2-hydroxylase),1
2.62,PHYH (phytanoyl-CoA 2-hydroxylase),2
-0.294,PHYH (phytanoyl-CoA 2-hydroxylase),3
-0.00069,TRGV5 (T cell receptor gamma variable 5),1
-0.0536,TRGV5 (T cell receptor gamma variable 5),2
-0.235,TRGV5 (T cell receptor gamma variable 5),3
0.769,POU3F3 (POU class 3 homeobox 3),1
0.876,POU3F3 (POU class 3 homeobox 3),2
-1.59,POU3F3 (POU class 3 homeobox 3),3
-0.762,MEAF6 (MYST/Esa1 associated factor 6),1
0.537,MEAF6 (MYST/Esa1 associated factor 6),2
0.103,MEAF6 (MYST/Esa1 associated factor 6),3
1.89,THBD (thrombomodulin),1
0.753,THBD (thrombomodulin),2
-1.34,THBD (thrombomodulin),3

Look-ups from the entries so far:
Result for TMEM91 (transmembrane protein 91) #3 under “total luciferase, z-score”: 1.12
Entry of AVPR2 (arginine vasopressin receptor 2) #3 under “total luciferase, z-score”: -1.22
For “total luciferase, z-score”, ADSS1 (adenylosuccinate synthase 1) #1 shows -0.317
Result for MEAF6 (MYST/Esa1 associated factor 6) #3 under “total luciferase, z-score”: 0.103
CNOT2 (CCR4-NOT transcription complex subunit 2) #2, total luciferase, z-score = 0.24
Under “total luciferase, z-score”, THBD (thrombomodulin) #2 has 0.753
